# Entries after “also recorded” stand apart in the source; their conditions may differ.
# Experiments:
# [1] = Ratiometric fluorescence response (F526/F576) to Cu(I) in aqueous buffer; conditions: probe 0.5 to 20 μM, no Cu(I)
# Method: UV-vis absorption and emission measurements. FCP-1 stock solution in DMSO (5 mM) was prepared, aliquoted and stored at […]. For each spectroscopic measurement, a fresh aliquot was diluted to 500 μM by DMSO and further diluted with PBS containing 2 mM GSH/PEG-400 mixture (3:2, v/v) to prepare the sensing solution with 5 μM of FCP-1. The sensing solution was pre-incubated in a water bath at 37° C., and then [Cu(CH3CN)](PF6) in MeCN or other metal ions in H2O was added. The solution mixture was kept at 37° C. and taken out for UV-vis absorption or emission spectroscopic measurements in quartz cuvette at predetermined time intervals. Emission spectra were corrected using coumarin 153 as secondary emission standard (4). Photoluminescence quantum yield (PLQY) was determined using fluorescein in 0.1 M NaOH solution (0.95; λex=496 nm). FRET efficiency from the fluorescein moiety to rhodamine moiety of FCP-1 was estimated by [1−(PLQY of FCP-1/PLQY of FL-TPA)].
# The ratiometric fluorescence change of FCP-1 at 526 and 576 nm (F526/F576) was rapid and reached saturation after ca. 30 min in the presence of a two-fold excess of Cu(I) (10 μM).
# [2] = system: total cellular ^63Cu levels in HeLa cells; assay: ICP-MS of total cellular copper in HeLa cells; format: cell-based, Human; conditions: ascorbate 1 mM or BSO 1 mM
SMILES,basal F526/F576 emission ratio with varying concentrations of probe [1],total copper levels by ICP-MS compared to vehicle control [2]
CC[N+](CC)=c1ccc2c(-c3ccccc3C(=O)O)c3ccc(N4CCN(Cc5cccc(CN(Cc6ccccn6)Cc6cccc(COc7ccc8c(-c9ccccc9C(=O)OC)c9ccc(=O)cc-9oc8c7)n6)n5)CC4)cc3oc-2c1 [FCP-1],No significant changes; also recorded: did not show significant changes,
"CCCCS(=N)(=O)CCC(N)C(=O)O (centres unmarked) [BSO, buthionine sulfoximine]",,no change; also recorded: did not differ significantly

# Reference: patent US12241902B2, “Probes for detection of copper” (The Regents of the University of California, priority 2019, dated 2025)
